Results published in publication PMC8446793.
No constants are given. Whether binding was seen depends on the method and setting. Binding seen in cells or lysates may run through a third protein. These calls come from enrichment with a bait or labelling near it, and not all partners need be listed.

B1: SYD-1/SYDE1 (protein, UniProt Q86NH1 1-987)
chain: MLISTSLKFLTMLTSNGFGGTNPPKGMPYPPTYLYTEEPQNECCCCWLCRLLCCCSPVDQTASRSRMNASQPPPGGGGRLPDEVFRKITAVDQGQSTLTQSGIQGLSARTLSSEPRGDLVFQLVEIIKKPGQSLGLYLREGNGKDRSDGVFVSRFGDNSELAKYGEVMRPGDEILTINNVEVSMMSIDDVVLILSIPRRLLLRIRYSKSMRHEIISSRSRESERPVVVFHKYDDRRDSETNAPILSQPTSTANTWLGKKSRQQMEEMRNATTSSTLRTHASTSSPRNHFAPRLVNGHSHSIGVPSASTTSHDHQYQRFASEPSDSVSRTARVPPPRLASATVRRTESFNSAPGVSTSAPMYTLPRSSTAVPPPDILGSIPYSARDPLMRSSADLPYDPMTGRLSSSVPTDPLLSRSLCSPILPRTLRQANDSNKSNSLPRRRIMTGGRNVKWRNDVVSTSDLCGEESDGAISAPEYSSPPFSRLTQQQQFRLSNGSPGRTVNDIFSAAEYRNWAGPYDPRGMYGPFPPGQRATRWSHTYGEQRAPRTSSLPGRTVLAQSLVGSPVLPRHPPPIVQDRPSAVFDRYHVSPLMNRRAPLRAAGPGINVDRLSVSSLTGILYVHIVEGRGLKIPEKQKGLTEEMYCVLEVDEQHRARTGVSTIEQKFKWRETFHIDVVNATVSNFFVYSWHPQFRHKLCHKGSLKLLEAFVVDQLNDDRVFALNLEPRGQLIVRIGFHDLQAVFRRTVNPRLNGVFGISLSRLVQRERRDTPIVLTRLIQEIEKRGVDYSGLYVLCGSVEKKKMLRAELESNPLGTELAAESIPDTNVIACLIKDFLRELPEPLISPQIHGMLLEAASVALPNDVQTNRHLVLKIIDCLQLSAKNCLLLVLDHLSTVLCSSPHNGLTPTRLSLIFAPLLFFCLDTFSPYTISPTSKMAAVRTLDINQASSSLQMILSIWPSRVNSESGSDSPATTCQKGGVIAYVSESQC
B2: SAD-1/BRSK1 (protein, UniProt Q19469 1-914)
chain: MFEALKEVLGEINSKLAAVNNELSSKIMSENIVSTRPVAQAQYCGPYKLEKTLGKGQTGLVKTGTHCITGRKVAIKIVNKEKLSESVLQKVEREIAIMKLIEHPHVLHLYDVYENKKYLYLLLEHVSGGELFDYLVRKGRLMSKEARKFFRQIISALDFCHAHNICHRDLKPENLLLDERNNIKVADFGMASLQVEGSMLETSCGSPHYACPEVIRGEKYDGRKADVWSCGVILYALLVGALPFDDDNLRNLLEKVKRGVFHIPHFVPADVQSLLRAMIEVDPGKRYSLADVFKHPWVSGTTKADPELELPMSQVVQTHVIPGEDSIDPDVLRHMNCLGCFKDKQKLINELLSPKHNTEKMVYFLLLDRKRRRPAQEDDTEIVLRGAAQNNDPPKKRTDSSRTSRYPMGSIADGSPINPRKTYGRNQKSGRHSSLGGSPTESPRSSTRDLFGSSSSGSYSARAGEDRDRGRSASRSTNSYHYYTQPVDPQTLAEAARHVRDAQERRESRDSGRGSSRKESKDRSDKSASSSSCKNDASSTSSVPHKYSPPSVMSESVVVSSSTMNSTNSSTNSLIAGNSQTSIGSTSGPWRSKLNNIKNSFLGTPRFHRRKMSNGTAESDSEDSQMIDTTDLVKKSWFGSLASSMSVERDDTHCVPVQGKTLNSIKAELIRAFLQIHELSHSVVGQNCFRVEYKRGPTVGGSVFSRGIKMNVDIIPSPQQVVIAGETPTYVVQFVLLAGPVRRFKRLVEHLSAILQNSTQQRADRQQQAALMVRPRRLSDSSVGSACSDSESNASSINMIARHSDKTETTSATSSDPYGPSPSMRSVGSGTANSYKSPTPHRRNTTAVTASSSSASNRYGPSSSSSGSYSNNADYSYHPEYSQRSNGSSAPKNQYSPGSQRSFAFSMFNKADKV

Target: ELKS-1 tagged C-terminally with CeTurboID::mNeongreen::3XFLAG (C. elegans)
Experiment: proximity labelling; TurboID knocked into the endogenous elks-1 locus; living L4 or young adult worms in M9 with 1 mM biotin for 2 h at 22 °C; denaturing extraction (1% SDS, 2 M urea), streptavidin Dynabeads, SDS-PAGE and LC-MS/MS; enrichment against wild-type worms and worms with free TurboID-mNG in the nervous system (rab-3p) processed in parallel

Binder | binding
B1 | binds
B2 | binds
